Data from PMC10908827, “Structural insight into an Arl1–ArfGEF complex involved in Golgi recruitment of a GRIP-domain golgin” (Nature Communications, 2024).
Results are given in words; binding and its absence hold for the method and conditions named. In cells and extracts the contact can be indirect. Some entries that bind do so weakly or less than the wild type. For some of these results: Tags and fused reporters may be left off the sequences shown.

T1: 3xFLAG tagged WT Gea2 (S. cerevisiae) (UniProt P39993)
T1 sequence: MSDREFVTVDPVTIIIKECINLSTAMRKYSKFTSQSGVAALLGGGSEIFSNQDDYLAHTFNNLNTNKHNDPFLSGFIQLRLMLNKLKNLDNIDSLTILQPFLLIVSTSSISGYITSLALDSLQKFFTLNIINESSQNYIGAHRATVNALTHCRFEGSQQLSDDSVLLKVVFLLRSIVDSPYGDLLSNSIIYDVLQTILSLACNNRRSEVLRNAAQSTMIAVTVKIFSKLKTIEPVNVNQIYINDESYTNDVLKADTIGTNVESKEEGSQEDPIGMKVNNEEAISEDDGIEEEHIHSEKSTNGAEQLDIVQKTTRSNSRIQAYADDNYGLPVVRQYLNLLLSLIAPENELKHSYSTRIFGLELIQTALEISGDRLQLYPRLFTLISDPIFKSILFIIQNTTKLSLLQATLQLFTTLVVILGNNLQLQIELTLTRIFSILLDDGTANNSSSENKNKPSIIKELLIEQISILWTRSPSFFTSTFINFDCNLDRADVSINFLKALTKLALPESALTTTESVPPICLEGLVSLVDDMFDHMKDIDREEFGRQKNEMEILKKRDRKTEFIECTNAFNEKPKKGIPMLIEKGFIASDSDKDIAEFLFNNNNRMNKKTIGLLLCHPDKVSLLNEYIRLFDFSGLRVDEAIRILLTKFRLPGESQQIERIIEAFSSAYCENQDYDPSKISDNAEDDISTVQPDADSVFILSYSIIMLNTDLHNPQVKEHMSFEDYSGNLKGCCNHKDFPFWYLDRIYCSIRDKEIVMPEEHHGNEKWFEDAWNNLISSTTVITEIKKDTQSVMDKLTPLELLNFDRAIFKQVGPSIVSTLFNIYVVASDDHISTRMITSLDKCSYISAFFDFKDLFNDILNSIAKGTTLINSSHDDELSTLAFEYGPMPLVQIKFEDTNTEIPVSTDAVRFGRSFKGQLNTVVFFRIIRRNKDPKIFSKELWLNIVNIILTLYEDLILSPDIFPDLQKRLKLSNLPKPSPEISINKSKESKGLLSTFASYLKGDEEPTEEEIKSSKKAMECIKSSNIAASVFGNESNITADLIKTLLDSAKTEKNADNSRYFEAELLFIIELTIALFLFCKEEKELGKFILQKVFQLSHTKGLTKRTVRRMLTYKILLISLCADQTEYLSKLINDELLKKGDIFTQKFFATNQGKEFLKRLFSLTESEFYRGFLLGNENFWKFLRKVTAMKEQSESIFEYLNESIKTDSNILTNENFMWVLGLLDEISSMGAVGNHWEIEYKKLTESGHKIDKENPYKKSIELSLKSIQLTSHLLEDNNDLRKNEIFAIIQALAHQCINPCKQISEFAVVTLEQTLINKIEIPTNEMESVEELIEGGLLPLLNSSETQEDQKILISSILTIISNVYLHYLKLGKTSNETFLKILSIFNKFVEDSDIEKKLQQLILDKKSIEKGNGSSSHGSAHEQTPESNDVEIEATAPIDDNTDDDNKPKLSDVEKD

T2: 3xFLAG tagged WT Gea2 (S. cerevisiae), P39993
T2 chain: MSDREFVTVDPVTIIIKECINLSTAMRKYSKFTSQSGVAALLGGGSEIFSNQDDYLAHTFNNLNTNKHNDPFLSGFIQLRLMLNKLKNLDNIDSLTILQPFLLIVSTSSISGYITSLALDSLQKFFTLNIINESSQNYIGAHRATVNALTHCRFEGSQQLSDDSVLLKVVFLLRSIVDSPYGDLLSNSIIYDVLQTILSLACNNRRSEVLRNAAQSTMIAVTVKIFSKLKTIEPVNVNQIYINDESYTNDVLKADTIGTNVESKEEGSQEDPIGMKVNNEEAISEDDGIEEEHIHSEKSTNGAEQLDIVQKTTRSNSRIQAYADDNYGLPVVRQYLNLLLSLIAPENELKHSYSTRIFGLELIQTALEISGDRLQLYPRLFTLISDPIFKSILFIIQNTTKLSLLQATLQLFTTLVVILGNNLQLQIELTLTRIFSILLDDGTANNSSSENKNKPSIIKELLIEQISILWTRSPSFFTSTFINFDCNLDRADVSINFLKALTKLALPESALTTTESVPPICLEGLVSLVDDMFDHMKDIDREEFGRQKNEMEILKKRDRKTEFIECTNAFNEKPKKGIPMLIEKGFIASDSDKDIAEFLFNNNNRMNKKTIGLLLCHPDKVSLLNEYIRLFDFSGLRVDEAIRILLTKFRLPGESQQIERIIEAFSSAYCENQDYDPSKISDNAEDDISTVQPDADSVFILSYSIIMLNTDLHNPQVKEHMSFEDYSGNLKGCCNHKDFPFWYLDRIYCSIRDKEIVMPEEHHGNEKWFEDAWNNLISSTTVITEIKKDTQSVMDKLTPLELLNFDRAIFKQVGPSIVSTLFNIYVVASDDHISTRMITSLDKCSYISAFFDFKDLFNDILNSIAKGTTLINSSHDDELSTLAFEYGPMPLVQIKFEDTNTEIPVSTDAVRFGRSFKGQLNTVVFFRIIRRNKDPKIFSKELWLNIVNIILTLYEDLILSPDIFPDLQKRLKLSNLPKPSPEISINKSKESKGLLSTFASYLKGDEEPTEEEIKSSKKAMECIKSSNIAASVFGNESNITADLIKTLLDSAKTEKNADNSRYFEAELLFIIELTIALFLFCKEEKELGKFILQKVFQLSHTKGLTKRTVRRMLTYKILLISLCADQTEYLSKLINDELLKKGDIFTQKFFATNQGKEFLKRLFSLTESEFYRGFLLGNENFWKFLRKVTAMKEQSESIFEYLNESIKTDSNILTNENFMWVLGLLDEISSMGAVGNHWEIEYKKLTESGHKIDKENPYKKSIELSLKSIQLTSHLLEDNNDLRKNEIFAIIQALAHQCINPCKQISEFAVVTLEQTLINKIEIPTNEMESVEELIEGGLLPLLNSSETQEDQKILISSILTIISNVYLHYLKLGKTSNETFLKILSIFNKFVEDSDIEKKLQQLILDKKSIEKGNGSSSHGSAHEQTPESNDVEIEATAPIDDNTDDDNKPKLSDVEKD


Assays:
[1] = target: Gea2 L167A, F171A double mutant (S. cerevisiae) (UniProt P39993); test: co-IP; dimerisation of Gea2 variants from yeast (Supplementary Fig. 12); tags and details not shown
[2] = target: T1, 3xFLAG tagged WT Gea2 (S. cerevisiae); test: co-IP; Gea2-3xFLAG and Arl1-3xHA co-expressed in gea2∆arl1∆ yeast; lysate (20 mM HEPES pH 7.2, 100 mM KCl, 5 mM MgCl2, 1% Triton X-100, 5 mM EDTA, 10% glycerol) on anti-FLAG M2 magnetic beads overnight at 4 °C; anti-HA blot
[3] = target: T2, 3xFLAG tagged WT Gea2 (S. cerevisiae), …; test: as above; details: remark: other sources report otherwise

| binding [2] | Binder | further results |
| --- | --- | --- |
|  | Gea2 L167A, F171A double mutant (protein, UniProt P39993 1-1459) MSDREFVTVDPVTIIIKECINLSTAMRKYSKFTSQSGVAALLGGGSEIFSNQDDYLAHTFNNLNTNKHNDPFLSGFIQLRLMLNKLKNLDNIDSLTILQPFLLIVSTSSISGYITSLALDSLQKFFTLNIINESSQNYIGAHRATVNALTHCRFEGSQQLSDDSVLAKVVALLRSIVDSPYGDLLSNSIIYDVLQTILSLACNNRRSEVLRNAAQSTMIAVTVKIFSKLKTIEPVNVNQIYINDESYTNDVLKADTIGTNVESKEEGSQEDPIGMKVNNEEAISEDDGIEEEHIHSEKSTNGAEQLDIVQKTTRSNSRIQAYADDNYGLPVVRQYLNLLLSLIAPENELKHSYSTRIFGLELIQTALEISGDRLQLYPRLFTLISDPIFKSILFIIQNTTKLSLLQATLQLFTTLVVILGNNLQLQIELTLTRIFSILLDDGTANNSSSENKNKPSIIKELLIEQISILWTRSPSFFTSTFINFDCNLDRADVSINFLKALTKLALPESALTTTESVPPICLEGLVSLVDDMFDHMKDIDREEFGRQKNEMEILKKRDRKTEFIECTNAFNEKPKKGIPMLIEKGFIASDSDKDIAEFLFNNNNRMNKKTIGLLLCHPDKVSLLNEYIRLFDFSGLRVDEAIRILLTKFRLPGESQQIERIIEAFSSAYCENQDYDPSKISDNAEDDISTVQPDADSVFILSYSIIMLNTDLHNPQVKEHMSFEDYSGNLKGCCNHKDFPFWYLDRIYCSIRDKEIVMPEEHHGNEKWFEDAWNNLISSTTVITEIKKDTQSVMDKLTPLELLNFDRAIFKQVGPSIVSTLFNIYVVASDDHISTRMITSLDKCSYISAFFDFKDLFNDILNSIAKGTTLINSSHDDELSTLAFEYGPMPLVQIKFEDTNTEIPVSTDAVRFGRSFKGQLNTVVFFRIIRRNKDPKIFSKELWLNIVNIILTLYEDLILSPDIFPDLQKRLKLSNLPKPSPEISINKSKESKGLLSTFASYLKGDEEPTEEEIKSSKKAMECIKSSNIAASVFGNESNITADLIKTLLDSAKTEKNADNSRYFEAELLFIIELTIALFLFCKEEKELGKFILQKVFQLSHTKGLTKRTVRRMLTYKILLISLCADQTEYLSKLINDELLKKGDIFTQKFFATNQGKEFLKRLFSLTESEFYRGFLLGNENFWKFLRKVTAMKEQSESIFEYLNESIKTDSNILTNENFMWVLGLLDEISSMGAVGNHWEIEYKKLTESGHKIDKENPYKKSIELSLKSIQLTSHLLEDNNDLRKNEIFAIIQALAHQCINPCKQISEFAVVTLEQTLINKIEIPTNEMESVEELIEGGLLPLLNSSETQEDQKILISSILTIISNVYLHYLKLGKTSNETFLKILSIFNKFVEDSDIEKKLQQLILDKKSIEKGNGSSSHGSAHEQTPESNDVEIEATAPIDDNTDDDNKPKLSDVEKD | binding [1]: binds |
| binds | 3xHA tagged Arl1 Y78L (protein, UniProt P38116 1-183) MGNIFSSMFDKLWGSNKELRILILGLDGAGKTTILYRLQIGEVVTTKPTIGFNVETLSYKNLKLNVWDLGGQTSIRPLWRCYYADTAAVIFVVDSTDKDRMSTASKELHLMLQEEELQDAALLVFANKQDQPGALSASEVSKELNLVELKDRSWSIVASSAIKGEGITEGLDWLIDVIKEEQL |  |
|  | 3xHA tagged WT Arl1, P38116 1-183 (protein) MGNIFSSMFDKLWGSNKELRILILGLDGAGKTTILYRLQIGEVVTTKPTIGFNVETLSYKNLKLNVWDLGGQTSIRPYWRCYYADTAAVIFVVDSTDKDRMSTASKELHLMLQEEELQDAALLVFANKQDQPGALSASEVSKELNLVELKDRSWSIVASSAIKGEGITEGLDWLIDVIKEEQL | binding [3]: binds |
| binds | 3xHA tagged Arl1 L69A (protein, UniProt P38116 1-183) MGNIFSSMFDKLWGSNKELRILILGLDGAGKTTILYRLQIGEVVTTKPTIGFNVETLSYKNLKLNVWDAGGQTSIRPYWRCYYADTAAVIFVVDSTDKDRMSTASKELHLMLQEEELQDAALLVFANKQDQPGALSASEVSKELNLVELKDRSWSIVASSAIKGEGITEGLDWLIDVIKEEQL |  |
